The RNAGym collection of RNA variant scans (doi:10.1126/science.aae0568)
This sample is rich in variants without activity.

B1: tRNA (parent)
chain: GUUCCGUUGGCGUAAUGGUAACGCGUCUCCCUCCUAAGGAGAAGACUGCGGGUUCGAGUCCCGUACGGAACG

Variants of: B1
Test: yeast fitness relative to wild type (ratio to wild type); higher = fitter; tRNA-Arg(CCU), competitive growth, 37 C, YPD
Outline: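 Gene amplicons from the start population and from each of six end populations were read by 100-nucleotide paired-end sequencing. Those end populations came from pooled Saccharomyces cerevisiae strains carrying tRNA-Arg(CCU) gene variants at the native locus, competed in YPD at 37°C for 24 hours. Fitness relative to wild type was worked out from changes in genotype frequencies. Genotypes needed ≥ 100 starting reads, and estimates < 0.5 were set to 0.5.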

| Variant | yeast fitness |
| --- | --- |
| U13A C29U G41C G52A | ≤ 0.5 |
| U13A C30U C55G G58C C66U | ≤ 0.5 |
| U13A C31A G44A A57G | ≤ 0.5 |
| U13A C34G A37U A40U C66U | ≤ 0.5 |
| U13A G41A A69C | ≤ 0.5 |
| U13A G63C G67C A69U | ≤ 0.5 |
| U13A G67C | 0.945 |
| U13A U28C G67A A70U | ≤ 0.5 |
| U13C A14U A21C U47A | ≤ 0.5 |
| U13C A15U C46A C66U | ≤ 0.5 |
| U13C A20C | 0.903 |
| U13C A20U C27G A37U | ≤ 0.5 |
| U13C C30U G41A A45G | ≤ 0.5 |
| U13C C46A U54C | ≤ 0.5 |
| U13C C66G A70U | ≤ 0.5 |
| U13C G23C C29G A43U G50A A65C | ≤ 0.5 |
| U13C G25C C49U G51A | ≤ 0.5 |
| U13G A14C G39C G41A A65U G68C | ≤ 0.5 |
| U13G A20U U53G | ≤ 0.5 |
| U13G A36G G38A A70C | ≤ 0.5 |
| U13G A40U G44C A57C | ≤ 0.5 |
| U13G C22U G25A A45C C61U | ≤ 0.5 |
| U13G C24U U28A A42G A69C | ≤ 0.5 |
| U13G C27A U28A C33U A43G U59C | ≤ 0.5 |

| Variant | yeast fitness |
| --- | --- |
| U13G C27A U28A C33U A69C | ≤ 0.5 |
| U13G C27U C62G | ≤ 0.5 |
| U13G G25A U59C | 0.681 |
| U13G U26A G44A C46U C62G | ≤ 0.5 |
| A14C A20G U47A | ≤ 0.5 |
| A14C A21U G25U A42C C55U | ≤ 0.5 |
| A14C A40U G52A C55G C61U C66U | ≤ 0.5 |
| A14C A45C U47C G50A | ≤ 0.5 |
| A14C A57G A69U | ≤ 0.5 |
| A14C C22A A37U G63A | ≤ 0.5 |
| A14C C27G C46G G58A A65G | ≤ 0.5 |
| A14C C27U A43U U54C U59G | ≤ 0.5 |
| A14C C30A C31G A65U | ≤ 0.5 |
| A14C C31A G38A | ≤ 0.5 |
| A14C C31G G44C A69C | ≤ 0.5 |
| A14C C31U A36U A70U | ≤ 0.5 |
| A14C C34U G39C C55U G56C | ≤ 0.5 |
| A14C G18A C62U | ≤ 0.5 |
| A14C G18A G44A | ≤ 0.5 |
| A14C G18A G48A C60G | 0.558 |
| A14C G25C U64A | ≤ 0.5 |
| A14C G44A U54C G56C | ≤ 0.5 |
| A14C G48A G50C | ≤ 0.5 |
| A14C G48C | 0.658 |

| Variant | yeast fitness |
| --- | --- |
| A14C G58A | 0.868 |
| A14C U16A G41C G56A | ≤ 0.5 |
| A14C U19C A20G G67A | ≤ 0.5 |
| A14C U32C U35A G44C C66U G67U A70G | ≤ 0.5 |
| A14G A15U G23C G50C U54A G63C | ≤ 0.5 |
| A14G A20U C31A G52A C66U | ≤ 0.5 |
| A14G A21C C30G A57U | ≤ 0.5 |
| A14G A36G C49G G56C | ≤ 0.5 |
| A14G A40C C60G C66G A69U | ≤ 0.5 |
| A14G A40U A42C U53A | ≤ 0.5 |
| A14G A42G G51C | ≤ 0.5 |
| A14G A45C | 0.718 |
| A14G C22G C30G A57U G68U A70G | ≤ 0.5 |
| A14G C22G C30G U47A | ≤ 0.5 |
| A14G C22U C34U | ≤ 0.5 |
| A14G C24G C31U C55A G63C G67C | ≤ 0.5 |
| A14G C27U U47A G63A | ≤ 0.5 |
| A14G C29G C33U U47C U59C | ≤ 0.5 |
| A14G C29U A42C C66G | ≤ 0.5 |
| A14G C30G C61U | ≤ 0.5 |
| A14G C31U C34U G38A C46U | ≤ 0.5 |
| A14G C34G A43C G58U A65U | ≤ 0.5 |
| A14G C55G A65G C66G | ≤ 0.5 |
| A14G C61A G67A | ≤ 0.5 |

| Variant | yeast fitness |
| --- | --- |
| A14G G25A A45G C60G G67A | ≤ 0.5 |
| A14G G25A C30A G50A C55U | ≤ 0.5 |
| A14G G38A C60U G67C | ≤ 0.5 |
| A14G G38C G50C | ≤ 0.5 |
| A14G G39A G44C C61A G63C | ≤ 0.5 |
| A14G G48A A57G A69U | ≤ 0.5 |
| A14G G48A C66U | 0.645 |
| A14G U16C G18A C27G | ≤ 0.5 |
| A14G U28G A43G G44A | ≤ 0.5 |
| A14G U35C A57G | ≤ 0.5 |
| A14G U54C A70G | 0.535 |
| A14U A20C C66A | ≤ 0.5 |
| A14U A21C G41A | ≤ 0.5 |
| A14U A21U U32G A37G A45G | ≤ 0.5 |
| A14U A40U U54A C55U | ≤ 0.5 |
| A14U A43U A45G U47A | ≤ 0.5 |
| A14U C22A | 0.668 |
| A14U C22G U28G G63C | ≤ 0.5 |
| A14U C24A A40U A43U | ≤ 0.5 |
| A14U C24A C33G C49G A65G | ≤ 0.5 |
| A14U C24G U26A C29G U32A | ≤ 0.5 |
| A14U C27G A57G C62A | ≤ 0.5 |
| A14U C27U U54C C55G | ≤ 0.5 |
| A14U C31A C46A | ≤ 0.5 |

| Variant | yeast fitness |
| --- | --- |
| A14U C31A U35G | ≤ 0.5 |
| A14U C46U U59C C62G A65U | ≤ 0.5 |
| A14U C55A U59G A65C | 0.561 |
| A14U G17C A36C | ≤ 0.5 |
| A14U G38C C46A | 0.551 |
| A14U G39C C55G C62A | ≤ 0.5 |
| A14U U16G U19A A42G | 0.512 |
| A14U U16G U19A A42G A70U | ≤ 0.5 |
| A14U U16G U19A G56A G67A | ≤ 0.5 |
| A14U U19C G67C | ≤ 0.5 |
| A14U U26C C27A C33G A45C C46A C62U | ≤ 0.5 |
| A15C A20G A36U | ≤ 0.5 |
| A15C A20G C60G G67A | ≤ 0.5 |
| A15C A21C C30U | ≤ 0.5 |
| A15C A36C G38C G52A | ≤ 0.5 |
| A15C A37U A43G G56A G67C | ≤ 0.5 |
| A15C C24A C66U | ≤ 0.5 |
| A15C C27U C31A C55U G68A | ≤ 0.5 |
| A15C C27U C62U | ≤ 0.5 |
| A15C C29G C46U C55A G68C | ≤ 0.5 |
| A15C C29U G39C A42U G48C G50U G51C A65U | ≤ 0.5 |
| A15C C30A | 0.666 |
| A15C C30G A69U | ≤ 0.5 |
| A15C C33A C34U A36C U64C | ≤ 0.5 |

| Variant | yeast fitness |
| --- | --- |
| A15C C33A C46G | ≤ 0.5 |
| A15C C33G G50A U64A | ≤ 0.5 |
| A15C C49G C62U | 0.636 |
| A15C G23A C24G C46G | ≤ 0.5 |
| A15C G38A U47A C55G C61U | ≤ 0.5 |
| A15C G67A | 0.698 |
| A15C U19A C31U C34A | ≤ 0.5 |
| A15C U19C C31U C34U A65C | ≤ 0.5 |
| A15C U26A G48C U59C | ≤ 0.5 |
| A15C U26C A40G U53C | ≤ 0.5 |
| A15C U28A A69U | ≤ 0.5 |
| A15G A21C C24G A40U G67U | ≤ 0.5 |
| A15G A21C G25C U26G U59A A70C | ≤ 0.5 |
| A15G A21G C29A | ≤ 0.5 |
| A15G A43G | 0.975 |
| A15G A45U G48A C55A | ≤ 0.5 |
| A15G A45U G48A C55A G63A | ≤ 0.5 |
| A15G A57U G68U | ≤ 0.5 |
| A15G C24G C29U C34G U35C C46G A65U | ≤ 0.5 |
| A15G C24G U35G A40G | ≤ 0.5 |
| A15G C30A C31G A40G G50A G56C | ≤ 0.5 |
| A15G C30U U32A | ≤ 0.5 |
| A15G C31A A70U | 0.639 |
| A15G C31G U35C A43C | 0.586 |

| Variant | yeast fitness |
| --- | --- |
| A15G C55G G56U G58A | ≤ 0.5 |
| A15G G17A C33U G39C C55A C66U G67C | ≤ 0.5 |
| A15G G25A U47C | ≤ 0.5 |
| A15G G39C A40G C66G A69C | ≤ 0.5 |
| A15G G39C A69C | 0.624 |
| A15G G63A | 0.926 |
| A15G U35C A45G C49G G56A A65C | ≤ 0.5 |
| A15G U35G C66G A69U | ≤ 0.5 |
| A15U A20G C27U A69C | ≤ 0.5 |
| A15U A20G C33U | ≤ 0.5 |
| A15U C22G C31U G52A A57C U64A G68A | ≤ 0.5 |
| A15U C24A G25A G50U U54C G68C | ≤ 0.5 |
| A15U C24G A42C C62U | ≤ 0.5 |
| A15U C30G A36C G48U C60A C61U | ≤ 0.5 |
| A15U C60G C66G | ≤ 0.5 |
| A15U G39A U47A G68C | ≤ 0.5 |
| A15U G41C U54G | ≤ 0.5 |
| A15U G44A A57U | ≤ 0.5 |
| A15U G63C C66G | ≤ 0.5 |
| U16A A20C C22G C24A | ≤ 0.5 |
| U16A A20G C34G A40C C46G | ≤ 0.5 |
| U16A A21C A45U C60U G67C | ≤ 0.5 |
| U16A A21U C24A G52A | ≤ 0.5 |
